These are yes or no findings as the source states them, for the method shown. Binding seen in cells or lysates may run through a third protein. For some assays here: Binding calls can cover weak binding; strength is not graded here. Sequences can lack the tags named with a protein.
T1: 14-3-3 KAPPA:YFP (Arabidopsis thaliana) (UniProt P48348)
T1 sequence: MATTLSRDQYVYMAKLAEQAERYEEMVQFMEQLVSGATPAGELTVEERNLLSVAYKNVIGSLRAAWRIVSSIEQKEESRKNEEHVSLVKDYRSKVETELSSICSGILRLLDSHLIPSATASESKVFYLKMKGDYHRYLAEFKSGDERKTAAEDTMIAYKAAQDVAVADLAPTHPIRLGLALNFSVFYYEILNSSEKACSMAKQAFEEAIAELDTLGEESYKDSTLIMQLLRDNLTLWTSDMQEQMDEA

T2: 14-3-3 OMEGA:YFP (Arabidopsis thaliana) (UniProt Q01525)
T2 sequence: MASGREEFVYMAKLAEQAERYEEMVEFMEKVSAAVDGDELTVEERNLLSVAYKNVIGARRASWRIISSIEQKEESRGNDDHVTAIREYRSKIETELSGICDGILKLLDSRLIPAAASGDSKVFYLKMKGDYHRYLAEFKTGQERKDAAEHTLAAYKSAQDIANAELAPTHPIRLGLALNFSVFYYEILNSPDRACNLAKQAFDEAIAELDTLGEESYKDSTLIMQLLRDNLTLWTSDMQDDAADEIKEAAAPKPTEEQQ

T3: 14-3-3 CHI:YFP (Arabidopsis thaliana) (UniProt P42643)
T3 sequence: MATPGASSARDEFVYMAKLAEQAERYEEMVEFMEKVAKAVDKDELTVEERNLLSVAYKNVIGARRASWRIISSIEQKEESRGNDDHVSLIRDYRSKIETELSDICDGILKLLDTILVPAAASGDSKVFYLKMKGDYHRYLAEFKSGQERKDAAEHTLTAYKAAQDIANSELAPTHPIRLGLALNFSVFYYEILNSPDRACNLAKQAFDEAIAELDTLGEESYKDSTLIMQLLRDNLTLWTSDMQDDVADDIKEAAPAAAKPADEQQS

B1: 14-3-3 KAPPA:HA (protein, UniProt P48348 1-248)
chain: T1 sequence
B2: 14-3-3 OMEGA (prey of the Co-IP of Figure 8D) (protein, UniProt Q01525 1-259)
chain: T2 sequence

Assays:
Assay in all cases: co-IP; YFP fusion as bait on GFP-Trap agarose beads from N. benthamiana leaves transiently co-expressing the proteins, extracted 48 h post-infiltration; lysis buffer as for MS; eluted by boiling in SDS-loading buffer; blots with anti-GFP and anti-HA
[1] = biological target: T1, 14-3-3 KAPPA:YFP (Arabidopsis thaliana)
[2] = biological target: T2, 14-3-3 OMEGA:YFP (Arabidopsis thaliana)
[3] = biological target: T3, 14-3-3 CHI:YFP (Arabidopsis thaliana)
[4] = biological target: THRUMIN1:YFP (Arabidopsis thaliana)

Molecule | binding [1] | binding [2] | binding [3] | binding [4]
THRUMIN1:HA (Arabidopsis thaliana) | binds | binds | no binding | –
B1 | – | – | – | binds
B2 | – | – | – | binds
